Literature values, collected in patent publication US8956662B2, “Phenylephrine pharmaceutical formulations and compositions for colonic absorption” (MSD Consumer Care, Inc., priority 2006, dated 2015).
Some results were stated once for a whole list of compounds, not compound by compound.

Conditions: reported; cited from earlier work

Question: Which duration of action does the source give for `COc1ccc(CCN2CCC(Nc3nc4ccccc4n3Cc3ccc(F)cc3)CC2)cc1` [Astemizole] here?
Answer: greater than 24 hours
